According to the supplement of paper PMC6078165:

Tested on: MDAMB436
Assay: relative JC-1 red fluorescence (viability) vs pre-drug, coculture with fibroblast (fraction); higher = more viable cancer cells
Description: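 JC-1 labelled TNBC cells cocultured 1:1 (1,500 cells each) with CellTrace Violet stained primary or stromal fibroblasts in 384-well plates in FluoroBrite medium, treated with one of 42 anticancer drugs at 0.1, 1, 10 or 100 uM. JC-1 red fluorescence (mitochondrial integrity in cancer cells only) was read by plate reader every 8 h for 72 h. Values are normalised to each well's pre-drug value. The stock of one drug was tenfold lower, so its dose labels may be too high.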

CC(=O)c1c(C)c2cnc(Nc3ccc(N4CCNCC4)cn3)nc2n(C2CCCC2)c1=O [Palbociclib]
relative JC-1 red fluorescence
Settings | 8 h | 16 h | 24 h | 32 h | 40 h | 48 h | 56 h | 64 h | 72 h
10 µM, coculture fibroblast: C12385 | 0.883 | 0.836 | 0.843 | 0.794 | 0.766 | 0.741 | 0.719 | 0.688 | 0.673
10 µM, coculture fibroblast: H6013 | 0.8937 | 0.863 | 0.886 | 0.8392 | 0.781 | 0.879 | 0.809 | 0.827 | 0.837
10 µM, coculture fibroblast: H6019 | 0.8397 | 0.829 | 0.841 | 0.811 | 0.807 | 0.804 | 0.763 | 0.74 | 0.704
10 µM, coculture fibroblast: H6076 | 0.838 | 0.688 | 0.679 | 0.639 | 0.596 | 0.571 | 0.563 | 0.545 | 0.537
10 µM, coculture fibroblast: H6231 | 0.819 | 0.7697 | 0.67667 | 0.627 | 0.593 | 0.554 | 0.525 | 0.497 | 0.478
10 µM, coculture fibroblast: HADF | 0.886 | 0.862 | 0.856 | 0.834 | 0.831 | 0.835 | 0.792 | 0.767 | 0.711
10 µM, coculture fibroblast: HCFa | 0.919 | 0.9 | 0.817 | 0.855 | 0.829 | 0.852 | 0.887 | 0.868 | 0.817
10 µM, coculture fibroblast: HCPF | 0.8268 | 0.775 | 0.705 | 0.659 | 0.617 | 0.578 | 0.539 | 0.508 | 0.486
10 µM, coculture fibroblast: HHSteC | 0.908 | 0.8662 | 0.852 | 0.837 | 0.837 | 0.837 | 0.791 | 0.773 | 0.734
10 µM, coculture fibroblast: HMF | 0.85 | 0.733 | 0.6332 | 0.5963 | 0.56 | 0.519 | 0.494 | 0.473 | 0.455
10 µM, coculture fibroblast: HPFa | 0.9374 | 0.9102 | 0.907 | 0.901 | 0.899 | 0.895 | 0.864 | 0.86 | 0.81
10 µM, coculture fibroblast: HUF | 0.9153 | 0.8641 | 0.869 | 0.822 | 0.782 | 0.748 | 0.717 | 0.706 | 0.687
10 µM, coculture fibroblast: Hs5 | 0.835 | 0.705 | 0.662 | 0.591 | 0.555 | 0.498 | 0.482 | 0.438 | 0.408
10 µM, coculture fibroblast: Hs27A | 0.888 | 0.88 | 0.88 | 0.838 | 0.793 | 0.741 | 0.754 | 0.755 | 0.701
10 µM, coculture fibroblast: Hs343T | 0.792 | 0.661 | 0.629 | 0.583 | 0.5477 | 0.5038 | 0.481 | 0.454 | 0.432
10 µM, coculture fibroblast: WS1 | 0.8558 | 0.8544 | 0.9085 | 0.9087 | 0.924 | 0.929 | 0.9086 | 0.872 | 0.833
100 µM, coculture fibroblast: C12385 | 0.658 | 0.542 | 0.476 | 0.387 | 0.336 | 0.306 | 0.284 | 0.261 | 0.237
100 µM, coculture fibroblast: H6013 | 0.588 | 0.3906 | 0.355 | 0.323 | 0.2997 | 0.2928 | 0.2547 | 0.2313 | 0.1909
100 µM, coculture fibroblast: H6019 | 0.777 | 0.535 | 0.484 | 0.407 | 0.376 | 0.357 | 0.34 | 0.323 | 0.302
100 µM, coculture fibroblast: H6076 | 0.9884 | 0.838 | 0.712 | 0.602 | 0.505 | 0.435 | 0.389 | 0.363 | 0.339
100 µM, coculture fibroblast: H6231 | 0.871 | 0.761 | 0.656 | 0.5653 | 0.485 | 0.397 | 0.362 | 0.32 | 0.301
100 µM, coculture fibroblast: HADF | 0.654 | 0.475 | 0.44 | 0.399 | 0.368 | 0.369 | 0.316 | 0.295 | 0.248
100 µM, coculture fibroblast: HCFa | 0.788 | 0.487 | 0.417 | 0.357 | 0.328 | 0.329 | 0.281 | 0.263 | 0.214
100 µM, coculture fibroblast: HCPF | 0.876 | 0.911 | 0.821 | 0.702 | 0.628 | 0.541 | 0.472 | 0.418 | 0.361
100 µM, coculture fibroblast: HHSteC | 0.816 | 0.614 | 0.546 | 0.479 | 0.453 | 0.445 | 0.394 | 0.362 | 0.312
100 µM, coculture fibroblast: HMF | 0.892 | 0.877 | 0.758 | 0.642 | 0.533 | 0.449 | 0.371 | 0.313 | 0.268
100 µM, coculture fibroblast: HPFa | 0.891 | 0.76 | 0.611 | 0.535 | 0.493 | 0.486 | 0.423 | 0.405 | 0.355
100 µM, coculture fibroblast: HUF | 0.8442 | 0.613 | 0.521 | 0.431 | 0.377 | 0.348 | 0.321 | 0.292 | 0.28
100 µM, coculture fibroblast: Hs5 | 0.987 | 0.908 | 0.791 | 0.663 | 0.553 | 0.456 | 0.419 | 0.358 | 0.311
100 µM, coculture fibroblast: Hs27A | 0.575 | 0.409 | 0.361 | 0.328 | 0.303 | 0.321 | 0.259 | 0.242 | 0.186
100 µM, coculture fibroblast: Hs343T | 0.992 | 0.9419 | 0.832 | 0.723 | 0.598 | 0.509 | 0.447 | 0.395 | 0.361
100 µM, coculture fibroblast: WS1 | 0.714 | 0.549 | 0.506 | 0.428 | 0.383 | 0.357 | 0.34 | 0.315 | 0.294

The reference is the same well before dosing, and untreated signal decays as well.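 Fibroblast labels name human fibroblasts: mostly primary ones from tissues such as uterus (C12385, HUF), lung (H6013), bone (Hs27A), adrenal (HADF) and skin (WS1), plus mammary HMF and breast cancer-associated Hs343T. The cancer cells are basal-like or mesenchymal-like triple-negative breast cancer lines. The paper calls a changed response a hit when it shifts by more than 3x the replicate standard deviation. The tissue of the other fibroblasts is not given here.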
